From article PMC5760633, “Determining direct binders of the Androgen Receptor using a high-throughput Cellular Thermal Shift Assay” (Scientific Reports, 2018)
Not every entry of the source has a single result; some have several. Only these are listed. The source may hold further records. Results that share an entry differ for a reason that is not stated; some may be repeats, others may stem from another dose, organism or construct than stated.

Amino acid sequences for entries named in this document (tags omitted).
UniProt P10275, whole entry H875Y: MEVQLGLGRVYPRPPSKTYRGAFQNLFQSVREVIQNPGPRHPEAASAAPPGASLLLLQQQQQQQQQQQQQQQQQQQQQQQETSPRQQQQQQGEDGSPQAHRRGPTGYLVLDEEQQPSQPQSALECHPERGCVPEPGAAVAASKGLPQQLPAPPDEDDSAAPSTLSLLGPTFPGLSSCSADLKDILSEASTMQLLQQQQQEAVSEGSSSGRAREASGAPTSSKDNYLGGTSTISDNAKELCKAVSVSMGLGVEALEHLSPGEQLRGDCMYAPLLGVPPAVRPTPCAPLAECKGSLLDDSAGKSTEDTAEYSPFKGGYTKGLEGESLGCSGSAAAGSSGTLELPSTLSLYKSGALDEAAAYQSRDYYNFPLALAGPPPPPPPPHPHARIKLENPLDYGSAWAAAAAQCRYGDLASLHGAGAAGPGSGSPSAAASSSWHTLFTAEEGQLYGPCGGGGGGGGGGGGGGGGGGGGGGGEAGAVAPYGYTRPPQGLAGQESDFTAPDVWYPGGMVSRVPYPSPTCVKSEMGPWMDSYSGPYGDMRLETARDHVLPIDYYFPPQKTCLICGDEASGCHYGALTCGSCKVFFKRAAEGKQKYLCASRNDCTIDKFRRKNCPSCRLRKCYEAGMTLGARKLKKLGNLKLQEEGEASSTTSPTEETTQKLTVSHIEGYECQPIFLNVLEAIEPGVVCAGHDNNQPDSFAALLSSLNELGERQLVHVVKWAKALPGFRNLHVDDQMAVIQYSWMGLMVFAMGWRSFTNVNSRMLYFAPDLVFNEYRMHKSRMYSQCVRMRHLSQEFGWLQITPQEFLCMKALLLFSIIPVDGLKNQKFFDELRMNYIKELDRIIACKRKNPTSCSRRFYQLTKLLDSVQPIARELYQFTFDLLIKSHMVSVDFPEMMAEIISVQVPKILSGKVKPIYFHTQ

Molecular target: Androgen Receptor (AR) (Homo sapiens, UniProt P10275, H875Y)
Assay: CETSA HT ITDRF at 46 °C, agonist mode (no exogenous DHT), CWR22Pc-R1-AD1 cells
Assay type: binding

C[C@]1(O)CC[C@H]2[C@@H]3CCC4=CC(=O)CCC4=C3C=C[C@@]21C
compound incubation time at which AR thermal stabilisation is seen: ≤ 10 minutes and 10 minutes
